Tested on: wild-type mice
Assay: Wild-type mice treated with dynasore (organ pathology, coronary artery histology, TβR-II staining, plasma cholesterol)
Assay type: in vivo
Settings: wild-type mice treated with dynasore 1 mg/kg every two days for 8 weeks (120±10 with vehicle only)
Description: Wild-type and ApoE-null mice were treated with vehicle only (a, c) or 1 mg/kg dynasore (b, d) every two days for 8 weeks. The coronary arteries were removed from the animals and subjected to histological analysis by H & E staining (A) and indirect immunofluorescent staining for TβR-II(B). The asterisk (*) indicates the location of the lumen in coronary arteries. The arrow indicates the immunofluorescent staining of TβR-II in the aortic endothelium.
We hypothesize that TGF-β enhancers such as inhibitors of clathrin-dependent endocytosis may ameliorate atherosclerosis caused by cholesterol-induced suppression of TGF-β responsiveness in vascular cells^3,12. To test our hypothesis, we treated hypercholesterolemic ApoE-null mice with dynasore (1 mg/kg body weight) via intraperitoneal administration every two days for 8 weeks. We chose dynasore for two reasons. […] At 50 μM, it enhances TGF-β-stimulated expression of PAI-1 in these cell types by ˜4-5 fold, 2) Dynasore is the only inhibitor tested which alone is capable of stimulating PAI-1 expression. […] The plasma levels of cholesterol in wild-type mice treated with either vehicle only or dynasore were 120±10 and 125±20 mg/dl, respectively.
However, no TβR-II staining was found in the aortic endothelium and smooth muscle of coronary arteries in ApoE-null mice treated with vehicle only (FIG. 4Bc).

O=C(N/N=C/c1ccc(O)c(O)c1)c1cc2ccccc2cc1O [dynasore]
plasma levels of cholesterol: 125 ± 20 mg/dL

Source: US8487006B2, “Method of enhancing TGF-β signalling” (Auxagen, Inc., priority 2008, dated 2013)
